According to EP0341019A2, “Polyether antibiotic” (priority 1988, dated 1989):
At least one compound was matched to its structure with a doubt left.

Tested on: culture A82810.1 (Actinomadura fibrosa sp. nov. NRRL 18348)
Assay: antibiotic sensitivity disc test on seeded ISP No. 2 agar
Format: cell-based
Conditions: cephalothin 30 µg, lincomycin 2 µg, penicillin G 10 units, rifampin 5 µg, lysozyme 50 µg/mL, bacitracin 10 units, gentamicin 10 µg, neomycin 30 µg, oleandomycin 15 µg, streptomycin 10 µg, tetracycline 30 µg, tobramycin 10 µg, vancomycin 30 µg
Procedure: Resistance to antibiotics was measured by padding antibiotic sensitivity discs onto the surface of seeded ISP No. 2 agar plates. Resistance was scored as (+) when no zone of inhibition was observed and as (-) when a zone of inhibition was observed.

CN(C)[C@@H]1C(O)=C(C(N)=O)C(=O)[C@@]2(O)C(O)=C3C(=O)c4c(O)cccc4[C@@](C)(O)[C@H]3C[C@@H]12 [tetracycline] was tested, and the “resistance / sensitivity of culture A82810.1 to the antibiotic” value was “sensitive”.
